{"source": "patent US5550214", "about": "(dated 1996)", "assay": "general procedure: Fmoc solid-phase peptide synthesis", "conditions": "whole synthesis, by weight", "note": "Some peptides are written in HELM: one residue between dots, names in brackets for other building blocks, links after the first $.", "data": [{"substance": "PEPTIDE1{I.I.S.A.V.V.G.I.L}$$$$V2.0", "values": [{"measurement": "final purity (method not given)", "value": "about 40% pure by weight"}]}]}
